Values of other authors as cited in US10053427B2, “Crystalline forms of cabozantinib phosphate and cabozantinib hydrochloride” (priority 2015, dated 2018).
Where a name gives a salt, the structure may show the parent alone. At least one compound was matched to its structure with a doubt left.

Conditions: reported in WO2010/083414; cited from earlier work

Structure (SMILES): COc1cc2nccc(Oc3ccc(NC(=O)C4(C(=O)Nc5ccc(F)cc5)CC4)cc3)c2cc1OC [cabozantinib hydrochloride salt]
- Hygroscopicity: hygroscopic
